Results are given in words; binding and its absence hold for the method and conditions named. For part of these data: In cells and extracts the contact can be indirect. Some entries that bind do so weakly or less than the wild type.
Assays:
[1] = molecular target: T1, ornithine decarboxylase (ODC) (UniProt P11926); assay: two-hybrid screening and immunocoprecipitation
T1 sequence (looked up): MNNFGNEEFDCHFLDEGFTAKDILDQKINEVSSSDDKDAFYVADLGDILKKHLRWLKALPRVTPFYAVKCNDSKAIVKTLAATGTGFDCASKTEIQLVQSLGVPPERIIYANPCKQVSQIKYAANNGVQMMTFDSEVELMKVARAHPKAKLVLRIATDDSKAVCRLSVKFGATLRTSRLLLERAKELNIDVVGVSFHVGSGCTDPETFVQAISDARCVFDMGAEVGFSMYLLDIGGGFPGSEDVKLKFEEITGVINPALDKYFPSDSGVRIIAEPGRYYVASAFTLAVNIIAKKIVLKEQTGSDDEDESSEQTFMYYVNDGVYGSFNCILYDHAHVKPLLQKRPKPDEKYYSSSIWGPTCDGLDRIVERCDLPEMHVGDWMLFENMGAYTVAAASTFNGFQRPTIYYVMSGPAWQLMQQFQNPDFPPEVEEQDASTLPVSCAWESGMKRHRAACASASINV

[2] = molecular target: T1, ornithine decarboxylase (ODC); assay: functional studies in oocytes, HEK293 cells and with purified ODC
[3] = molecular target: T1, ornithine decarboxylase (ODC); assay: two-hybrid screening, immunoprecipitation and functional studies

binding [1]: binds
binding [2]: binds
binding [3]: binds
B1: hRS1-Reg (regulatory domain of human RS1, amino acids 16-98 of hRS1), wildtype (protein, not shown: small tags and cut ends)
chain: SSGQSPDVGNPMSLARSVSASVCPIKPSDSDRIEPKAVKALKASAEFQLNSEKKEHLSLQDLSDHASSADHAPTDQSPAMPMQ
